Assay results reported in patent US8153167B2, “Herbal medicine for osteoporosis and related conditions” (Medipearl Pte Ltd., priority 2007, dated 2012).

Test system: ovariectomized rats
Assay: ovariectomized rat osteoporosis animal model
Type: in vivo
Details: three months, dose not given
Method: Materials have been tested in ovariectomized rats, a popular and generally accepted osteoporosis animal model.
After orally dosing continuously for three months at 0.12, 0.25, 0.5 and 0.8 g/kg/day, twice a day, the bone mass index, wet weight and dry weight of femur, bone mineral densities of femur and lumbar were measured and calculated. Body weights of rats were measured weekly.
The effects of the purified composition on the body weight of the rats in the groups described above were determined.
We measured the body weight of each experimental animal group weekly. The ovariectomized rats had been noticed to have a pronounced body weight increase compared to the sham-operated normal control group.

NCCCC(O)(P(=O)(O)O)P(=O)(O)O [Fosamax ®]
Bone Mass Index ( x ± s) (femur): 3.4202 ± 0.2476
Bone mineral densities, Femur ( x ± s): 0.1436 ± 0.00483
Bone mineral densities, Lumbar Spine ( x ± s): 0.1610 ± 0.00774
